At least one compound was matched to its structure with a doubt left.
Target: T1, HSA (Homo sapiens, UniProt P02768)
T1 construct: purchased Pentex, Miles Laboratories, Inc
Test: ANS-HSA complex solution assay, fluorescence (ANS binding and displacement by bilirubin)
Conditions: titration with 5 micromoles/l HSA, maximal fluorescence at 15 micromoles/l ANS, pH 7.4

By UniProt entry, the sequences of proteins in these tests, tags left out. Residues count along the entry.
UniProt P02768, 25-609: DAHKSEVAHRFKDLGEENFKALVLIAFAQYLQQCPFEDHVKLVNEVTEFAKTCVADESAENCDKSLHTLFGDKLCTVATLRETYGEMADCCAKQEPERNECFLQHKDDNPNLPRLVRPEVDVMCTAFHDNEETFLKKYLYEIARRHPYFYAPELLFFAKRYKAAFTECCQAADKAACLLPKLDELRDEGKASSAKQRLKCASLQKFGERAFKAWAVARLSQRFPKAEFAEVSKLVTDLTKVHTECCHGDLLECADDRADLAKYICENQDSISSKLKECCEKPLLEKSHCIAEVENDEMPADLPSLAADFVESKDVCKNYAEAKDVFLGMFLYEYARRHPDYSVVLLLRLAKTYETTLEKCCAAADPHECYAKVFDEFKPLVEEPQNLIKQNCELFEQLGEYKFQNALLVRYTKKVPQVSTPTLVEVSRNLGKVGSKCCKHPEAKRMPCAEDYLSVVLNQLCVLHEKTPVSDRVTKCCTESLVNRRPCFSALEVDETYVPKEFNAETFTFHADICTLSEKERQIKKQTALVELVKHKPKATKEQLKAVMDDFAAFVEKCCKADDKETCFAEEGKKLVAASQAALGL

O=S(=O)(O)c1cccc2cccc(Nc3ccccc3)c12 [ANS, 8-anilinonaphthalene-1-sulfonate, reference compound]
moles of ANS bound per one mole of HSA: approximately 3 moles

From US4069016A, “Assay for bilirubin” (priority 1977, dated 1978)
